Measurements as given in paper PMC3694632.

The chains behind the UniProt entries cited, without tags or fusion partners. Where a name states a change or a piece, a line headed by the entry shows the natural chain unless it says otherwise. Residues count along the entry.
UniProt Q51480: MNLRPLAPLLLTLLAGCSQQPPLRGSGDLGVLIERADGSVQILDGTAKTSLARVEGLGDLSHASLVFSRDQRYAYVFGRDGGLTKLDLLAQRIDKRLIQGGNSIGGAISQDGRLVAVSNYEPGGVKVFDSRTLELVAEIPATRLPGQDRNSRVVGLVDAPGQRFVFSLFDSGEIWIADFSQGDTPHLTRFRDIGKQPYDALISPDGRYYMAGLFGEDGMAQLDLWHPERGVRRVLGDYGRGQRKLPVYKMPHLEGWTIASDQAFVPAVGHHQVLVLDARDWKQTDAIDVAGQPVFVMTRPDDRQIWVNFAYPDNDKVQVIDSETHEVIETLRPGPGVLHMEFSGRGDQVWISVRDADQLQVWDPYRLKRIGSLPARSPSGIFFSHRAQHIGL
UniProt P24474, residues 26-568: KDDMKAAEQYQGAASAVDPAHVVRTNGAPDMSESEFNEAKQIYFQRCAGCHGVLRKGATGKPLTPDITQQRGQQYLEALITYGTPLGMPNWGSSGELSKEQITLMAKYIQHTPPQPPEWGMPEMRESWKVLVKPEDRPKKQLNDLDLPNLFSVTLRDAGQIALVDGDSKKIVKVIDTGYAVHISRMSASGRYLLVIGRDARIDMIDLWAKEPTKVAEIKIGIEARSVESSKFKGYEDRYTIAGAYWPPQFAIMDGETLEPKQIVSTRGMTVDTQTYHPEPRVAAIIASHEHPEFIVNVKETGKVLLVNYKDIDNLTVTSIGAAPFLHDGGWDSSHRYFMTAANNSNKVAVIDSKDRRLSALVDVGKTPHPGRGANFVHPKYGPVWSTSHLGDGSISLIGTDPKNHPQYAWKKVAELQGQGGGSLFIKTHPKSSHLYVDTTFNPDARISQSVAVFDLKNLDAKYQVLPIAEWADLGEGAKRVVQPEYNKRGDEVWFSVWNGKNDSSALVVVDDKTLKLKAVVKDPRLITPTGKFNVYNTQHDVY

Molecular target: STrEP-tagged (C-terminal) NirF (P. aeruginosa PAO1) (UniProt Q51480)
Assay: pull-down; affinity co-purification on Strep-Tactin resin from cell-free extract of P. aeruginosa PAO1 RM301 producing NirF-OneSTrEP, after in vivo cross-linking with formaldehyde; NirS detected by Western blot

binding: binds
Substance: cytochrome cd1 nitrite reductase NirS (from UniProt P24474 26-568) (enzyme)

No constants are given. Whether binding was seen depends on the method and setting. In cells and extracts the contact can be indirect. Binding calls can cover weak binding; strength is not graded here.
